Assay results published in the supplement of paper PMC10849652.
The other results are listed elsewhere or left out.

By UniProt entry, the sequences of proteins in these tests, tags left out. Where a name states a change or a piece, a line headed by the entry shows the natural chain unless it says otherwise.
UniProt Q9UIA9: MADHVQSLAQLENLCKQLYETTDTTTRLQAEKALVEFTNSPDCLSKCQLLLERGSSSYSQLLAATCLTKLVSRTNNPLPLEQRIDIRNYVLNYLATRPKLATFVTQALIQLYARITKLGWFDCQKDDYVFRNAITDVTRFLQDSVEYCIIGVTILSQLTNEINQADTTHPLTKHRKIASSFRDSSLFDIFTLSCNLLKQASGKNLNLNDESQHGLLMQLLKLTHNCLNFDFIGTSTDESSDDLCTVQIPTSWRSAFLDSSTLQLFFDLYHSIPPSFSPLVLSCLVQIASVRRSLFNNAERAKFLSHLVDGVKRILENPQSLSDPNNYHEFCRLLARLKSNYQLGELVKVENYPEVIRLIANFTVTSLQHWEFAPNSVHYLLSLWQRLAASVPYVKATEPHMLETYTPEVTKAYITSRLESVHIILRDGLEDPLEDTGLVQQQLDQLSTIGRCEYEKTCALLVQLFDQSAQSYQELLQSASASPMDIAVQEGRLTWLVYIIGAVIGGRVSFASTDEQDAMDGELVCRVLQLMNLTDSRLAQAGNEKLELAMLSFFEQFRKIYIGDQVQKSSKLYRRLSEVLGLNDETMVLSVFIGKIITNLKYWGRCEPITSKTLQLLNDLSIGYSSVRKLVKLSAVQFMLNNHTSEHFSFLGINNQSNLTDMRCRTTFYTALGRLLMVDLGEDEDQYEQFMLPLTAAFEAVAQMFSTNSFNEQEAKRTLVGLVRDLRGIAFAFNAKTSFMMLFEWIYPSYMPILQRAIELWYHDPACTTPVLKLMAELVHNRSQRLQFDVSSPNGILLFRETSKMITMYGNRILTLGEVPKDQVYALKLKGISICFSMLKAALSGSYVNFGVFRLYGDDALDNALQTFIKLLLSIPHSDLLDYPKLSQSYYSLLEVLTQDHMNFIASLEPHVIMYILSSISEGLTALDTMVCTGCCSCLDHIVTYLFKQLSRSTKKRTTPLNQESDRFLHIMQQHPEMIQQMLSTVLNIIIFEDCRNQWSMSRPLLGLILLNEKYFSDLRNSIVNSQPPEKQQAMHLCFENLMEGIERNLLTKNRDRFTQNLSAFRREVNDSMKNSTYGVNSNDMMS
UniProt O75152: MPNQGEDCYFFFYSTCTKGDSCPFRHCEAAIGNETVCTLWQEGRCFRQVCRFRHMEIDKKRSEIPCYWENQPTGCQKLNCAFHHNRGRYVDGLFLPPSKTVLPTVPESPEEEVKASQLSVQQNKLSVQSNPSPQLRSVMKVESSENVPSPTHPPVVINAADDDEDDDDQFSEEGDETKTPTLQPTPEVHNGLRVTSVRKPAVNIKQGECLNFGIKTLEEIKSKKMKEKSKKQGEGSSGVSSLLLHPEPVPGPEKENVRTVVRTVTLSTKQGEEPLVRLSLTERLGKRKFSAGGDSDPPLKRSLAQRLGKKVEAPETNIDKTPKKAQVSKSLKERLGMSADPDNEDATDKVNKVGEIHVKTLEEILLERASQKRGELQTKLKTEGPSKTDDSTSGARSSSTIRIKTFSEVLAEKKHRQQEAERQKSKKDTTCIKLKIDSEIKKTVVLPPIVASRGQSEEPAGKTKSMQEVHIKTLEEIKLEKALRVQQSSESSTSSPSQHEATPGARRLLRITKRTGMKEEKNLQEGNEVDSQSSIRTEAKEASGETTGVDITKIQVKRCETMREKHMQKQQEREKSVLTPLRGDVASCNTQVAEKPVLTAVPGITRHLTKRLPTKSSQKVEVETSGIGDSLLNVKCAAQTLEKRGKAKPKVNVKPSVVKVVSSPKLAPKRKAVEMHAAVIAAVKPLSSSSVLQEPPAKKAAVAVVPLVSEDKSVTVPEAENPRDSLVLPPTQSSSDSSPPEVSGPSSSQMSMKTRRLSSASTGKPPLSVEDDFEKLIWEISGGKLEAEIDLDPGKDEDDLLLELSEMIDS
UniProt Q8NBI6: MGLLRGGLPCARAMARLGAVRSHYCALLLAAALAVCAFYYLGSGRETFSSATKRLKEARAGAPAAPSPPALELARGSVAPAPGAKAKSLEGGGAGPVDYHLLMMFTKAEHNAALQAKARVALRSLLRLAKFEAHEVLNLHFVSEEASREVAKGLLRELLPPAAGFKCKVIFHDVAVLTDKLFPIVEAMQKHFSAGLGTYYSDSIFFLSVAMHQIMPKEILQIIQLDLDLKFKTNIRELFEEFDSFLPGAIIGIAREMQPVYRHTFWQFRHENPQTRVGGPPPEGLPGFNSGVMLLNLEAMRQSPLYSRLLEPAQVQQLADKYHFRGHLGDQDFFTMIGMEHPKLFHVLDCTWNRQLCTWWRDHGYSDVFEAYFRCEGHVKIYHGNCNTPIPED
UniProt Q9NUE0: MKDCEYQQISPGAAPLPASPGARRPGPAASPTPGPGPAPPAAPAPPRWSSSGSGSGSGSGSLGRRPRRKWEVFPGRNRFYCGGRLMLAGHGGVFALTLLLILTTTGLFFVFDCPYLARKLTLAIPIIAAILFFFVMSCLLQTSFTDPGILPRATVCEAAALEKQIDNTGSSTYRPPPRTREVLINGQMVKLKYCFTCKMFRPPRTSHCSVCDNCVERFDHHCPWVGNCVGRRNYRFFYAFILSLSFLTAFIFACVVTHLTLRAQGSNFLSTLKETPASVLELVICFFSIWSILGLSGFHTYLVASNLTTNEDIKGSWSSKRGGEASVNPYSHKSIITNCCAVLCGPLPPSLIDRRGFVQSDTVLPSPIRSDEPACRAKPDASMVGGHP
UniProt Q9H0D6: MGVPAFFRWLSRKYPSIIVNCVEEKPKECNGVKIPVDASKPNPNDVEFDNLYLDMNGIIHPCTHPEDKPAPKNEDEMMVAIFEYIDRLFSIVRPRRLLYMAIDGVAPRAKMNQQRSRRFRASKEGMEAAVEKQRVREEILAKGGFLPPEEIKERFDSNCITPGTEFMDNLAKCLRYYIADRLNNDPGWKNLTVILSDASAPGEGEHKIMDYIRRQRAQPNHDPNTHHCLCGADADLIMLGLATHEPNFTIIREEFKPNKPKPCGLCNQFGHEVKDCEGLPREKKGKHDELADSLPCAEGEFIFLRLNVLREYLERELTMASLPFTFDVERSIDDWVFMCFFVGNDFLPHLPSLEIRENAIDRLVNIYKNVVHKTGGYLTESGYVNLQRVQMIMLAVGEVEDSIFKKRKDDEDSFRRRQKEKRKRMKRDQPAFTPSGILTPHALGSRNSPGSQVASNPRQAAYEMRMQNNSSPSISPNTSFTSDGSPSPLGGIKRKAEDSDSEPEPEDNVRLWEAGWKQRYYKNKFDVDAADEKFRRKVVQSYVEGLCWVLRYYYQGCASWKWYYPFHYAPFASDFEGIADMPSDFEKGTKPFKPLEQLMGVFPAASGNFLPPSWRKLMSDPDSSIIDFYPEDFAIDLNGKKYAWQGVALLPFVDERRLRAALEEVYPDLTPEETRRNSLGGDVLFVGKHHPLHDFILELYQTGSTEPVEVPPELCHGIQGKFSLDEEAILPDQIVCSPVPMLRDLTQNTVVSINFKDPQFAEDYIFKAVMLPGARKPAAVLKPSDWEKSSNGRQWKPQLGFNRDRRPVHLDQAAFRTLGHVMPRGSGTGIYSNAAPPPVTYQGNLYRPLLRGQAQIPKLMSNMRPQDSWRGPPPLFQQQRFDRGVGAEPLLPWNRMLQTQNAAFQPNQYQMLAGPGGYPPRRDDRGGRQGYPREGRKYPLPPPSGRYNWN
UniProt Q9C0B5: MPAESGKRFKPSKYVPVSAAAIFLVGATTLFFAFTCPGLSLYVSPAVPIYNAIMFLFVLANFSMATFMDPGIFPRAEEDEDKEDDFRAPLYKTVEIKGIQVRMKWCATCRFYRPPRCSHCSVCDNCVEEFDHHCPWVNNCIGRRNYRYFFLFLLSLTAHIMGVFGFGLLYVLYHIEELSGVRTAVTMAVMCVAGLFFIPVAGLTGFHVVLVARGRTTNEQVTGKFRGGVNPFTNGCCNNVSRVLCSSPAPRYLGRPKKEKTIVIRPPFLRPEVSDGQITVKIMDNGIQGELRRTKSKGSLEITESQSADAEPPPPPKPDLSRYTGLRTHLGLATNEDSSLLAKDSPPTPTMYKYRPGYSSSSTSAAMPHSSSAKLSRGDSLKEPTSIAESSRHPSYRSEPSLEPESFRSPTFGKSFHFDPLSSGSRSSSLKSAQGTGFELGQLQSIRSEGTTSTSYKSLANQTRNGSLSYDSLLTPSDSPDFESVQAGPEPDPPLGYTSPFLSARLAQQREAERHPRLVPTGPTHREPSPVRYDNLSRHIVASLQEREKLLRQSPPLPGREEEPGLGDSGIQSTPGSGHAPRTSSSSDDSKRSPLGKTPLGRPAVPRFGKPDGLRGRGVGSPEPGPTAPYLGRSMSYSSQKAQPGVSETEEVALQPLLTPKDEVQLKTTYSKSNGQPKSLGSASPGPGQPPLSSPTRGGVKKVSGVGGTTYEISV
UniProt Q9UGR2: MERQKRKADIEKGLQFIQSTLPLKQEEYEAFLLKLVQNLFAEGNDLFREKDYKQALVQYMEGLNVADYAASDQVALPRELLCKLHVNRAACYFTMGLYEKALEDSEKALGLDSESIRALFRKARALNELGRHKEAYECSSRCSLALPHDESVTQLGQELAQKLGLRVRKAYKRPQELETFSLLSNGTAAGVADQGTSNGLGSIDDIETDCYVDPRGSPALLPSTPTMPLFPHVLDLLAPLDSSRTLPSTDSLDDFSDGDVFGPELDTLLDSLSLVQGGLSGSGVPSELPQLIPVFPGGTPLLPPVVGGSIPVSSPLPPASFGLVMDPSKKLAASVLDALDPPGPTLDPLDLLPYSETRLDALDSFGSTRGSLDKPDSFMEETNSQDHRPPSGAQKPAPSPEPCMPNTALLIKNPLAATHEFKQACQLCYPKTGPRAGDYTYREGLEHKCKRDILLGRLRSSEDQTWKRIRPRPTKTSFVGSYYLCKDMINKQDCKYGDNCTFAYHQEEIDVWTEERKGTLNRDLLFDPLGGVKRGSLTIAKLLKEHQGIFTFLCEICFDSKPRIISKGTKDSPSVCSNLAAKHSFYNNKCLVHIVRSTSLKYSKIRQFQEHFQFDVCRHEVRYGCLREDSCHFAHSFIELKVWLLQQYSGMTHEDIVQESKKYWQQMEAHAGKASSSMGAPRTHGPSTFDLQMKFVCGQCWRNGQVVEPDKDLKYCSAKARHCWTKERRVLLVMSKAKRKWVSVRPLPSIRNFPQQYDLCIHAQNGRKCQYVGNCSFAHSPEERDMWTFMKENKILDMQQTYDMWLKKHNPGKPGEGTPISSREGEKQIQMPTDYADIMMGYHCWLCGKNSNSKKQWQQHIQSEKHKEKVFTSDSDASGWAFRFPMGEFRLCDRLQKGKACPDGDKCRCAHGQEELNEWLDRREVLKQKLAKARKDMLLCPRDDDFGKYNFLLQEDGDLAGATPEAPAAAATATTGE
UniProt P62699: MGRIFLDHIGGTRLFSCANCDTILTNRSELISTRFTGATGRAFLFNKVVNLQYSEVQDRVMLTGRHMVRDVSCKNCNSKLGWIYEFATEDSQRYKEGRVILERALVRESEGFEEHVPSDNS
UniProt Q8N5P1: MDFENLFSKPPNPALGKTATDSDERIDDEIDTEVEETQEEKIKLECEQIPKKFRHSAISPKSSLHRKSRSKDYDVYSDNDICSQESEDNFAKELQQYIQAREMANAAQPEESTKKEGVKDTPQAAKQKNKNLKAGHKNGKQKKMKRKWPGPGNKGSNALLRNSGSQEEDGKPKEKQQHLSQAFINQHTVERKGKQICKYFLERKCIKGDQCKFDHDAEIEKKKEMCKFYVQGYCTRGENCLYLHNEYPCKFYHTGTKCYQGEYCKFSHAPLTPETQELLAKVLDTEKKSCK
UniProt Q86U90: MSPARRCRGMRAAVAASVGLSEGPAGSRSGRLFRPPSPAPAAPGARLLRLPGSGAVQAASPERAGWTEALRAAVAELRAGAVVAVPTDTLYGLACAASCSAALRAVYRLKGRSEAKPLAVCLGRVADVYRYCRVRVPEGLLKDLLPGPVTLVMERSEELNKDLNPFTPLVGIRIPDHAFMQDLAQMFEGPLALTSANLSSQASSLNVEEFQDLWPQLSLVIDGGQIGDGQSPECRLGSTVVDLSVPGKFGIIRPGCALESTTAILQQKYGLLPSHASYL
UniProt Q9BSR8: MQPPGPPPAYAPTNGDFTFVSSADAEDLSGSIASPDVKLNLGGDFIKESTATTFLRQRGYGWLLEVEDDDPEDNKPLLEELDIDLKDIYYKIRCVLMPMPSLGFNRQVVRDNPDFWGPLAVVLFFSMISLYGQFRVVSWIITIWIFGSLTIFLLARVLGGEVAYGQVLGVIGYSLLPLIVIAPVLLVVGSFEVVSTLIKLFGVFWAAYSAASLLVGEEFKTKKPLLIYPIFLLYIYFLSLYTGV
UniProt Q5BJH7: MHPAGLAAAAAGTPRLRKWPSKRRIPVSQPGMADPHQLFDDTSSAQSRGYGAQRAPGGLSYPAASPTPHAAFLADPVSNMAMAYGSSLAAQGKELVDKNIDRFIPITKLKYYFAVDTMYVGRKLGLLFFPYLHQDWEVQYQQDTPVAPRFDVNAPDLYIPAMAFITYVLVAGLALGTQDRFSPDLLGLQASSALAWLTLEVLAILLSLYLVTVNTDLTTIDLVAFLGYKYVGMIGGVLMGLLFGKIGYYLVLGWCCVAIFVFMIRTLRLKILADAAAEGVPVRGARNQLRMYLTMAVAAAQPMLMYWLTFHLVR

What was measured:
Assay in all cases: log2 fold change, soluble protein after heating vs DMSO (PISA); higher = thermal stabilisation; K562 lysate, 10 uM; active = over 0.2 and 3.5 SD of the protein, either way, in both replicates (recomputed)
erlotinib = compound: C#Cc1cccc(Nc2ncnc3cc(OCCOC)c(OCCOC)cc23)c1 [erlotinib]
Outline: (§1)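 To prepare the extract, K562 pellets were dounce-homogenised in PBS pH 7.4 with 1 mM MgCl2, giving crude material at 1 mg/mL protein. This was treated with 10 μM compound for 30 min, then heated in aliquots for 3 min over 48°C-58°C before pooling and addition of NP-40 to 0.5% at 4°C. Centrifugation at 21,000xg for 90 min left soluble protein in the supernatant, which TMTpro 16plex LC-MS/MS quantified with equalised channel sums. Results are log-two fold changes in thermal stability compared with solvent controls, from duplicates.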

[1] = compound: C/C(=N\NC(=O)C1=CC(=CC=C1)S(=O)(=O)N2CCOCC2)/C3=C(C=CC(=C3)Cl)O
Outline: as §1

[2] = compound: C1=CC(=CC=C1C2=NC3=C(N2)C=C(C=C3)C(=O)N)OC4=CC=C(C=C4)Cl
Outline: as §1

[3] = compound: C1=CC2=C(C=CC(=C2)/C=C\3/C(=O)NC(=NCC4=CC=CS4)S3)N=C1
Outline: as §1

[4] = compound: C1=CC2=NC=CN=C2C=C1/C=C/3\C(=O)NC(=O)S3
Outline: as §1

[5] = compound: C1=CC=C(C=C1)C2=NC(=C(N2)C3=CC=NC=C3)C4=CC(=C(C=C4)Cl)O
Outline: as §1

[6] = compound: C1=CC=C2C(=C1)C3=NNC4=CC=CC(=C43)C2=O
Outline: as §1

[7] = compound: C1CCN(C1)C(=O)NC2=CC=CC(=C2)NC3=NC=C(C(=N3)NCCC4=CN=CN4)Br
Outline: as §1

[8] = compound: C1CN(CCC1(CC2=CC=C(C=C2)Cl)N)C3=NC=NC4=C3C=CN4
Outline: as §1

IRAK-1-4 Inhibitor I = compound: C1COCCN1CCN2C3=CC=CC=C3N=C2NC(=O)C4=CC(=CC=C4)[N+](=O)[O-] [IRAK-1-4 Inhibitor I]
Outline: as §1

ibrutinib = compound: C=CC(=O)N1CCC[C@@H](n2nc(-c3ccc(Oc4ccccc4)cc3)c3c(N)ncnc32)C1 [ibrutinib]
Outline: as §1

[9] = compound: CC(=O)c1cnc2ccc(-c3cc(Cl)c(O)c(Cl)c3)nc2c1N[C@H]1CC[C@H](CN(C)C)CC1
Outline: as §1

ralimetinib = compound: CC(C)(C)Cn1c(N)nc2ccc(-c3[nH]c(C(C)(C)C)nc3-c3ccc(F)cc3)nc21 [ralimetinib]
Outline: as §1

[10] = compound: CC(C)(O)CC(=O)NCCn1ccc2ncnc(Nc3ccc(Oc4cccc(C(F)(F)F)c4)c(Cl)c3)c21
Outline: as §1

[11] = compound: CC(C)C1=C2N=C(C=C(N2N=C1)NCC3=CC=CC=C3)NCCCCCCN
Outline: as §1

[12] = compound: CC1=C(C(CC(=O)N1)C2=CC=C(C=C2)C(F)(F)F)C(=O)NC3=C(C=C4C(=C3)C=NN4)F
Outline: as §1

[13] = compound: CC1=C(C2=C(C=C1)C(=O)C3=CC=CC=C3N2CCCN)C
Outline: as §1

[14] = compound: CC1=C(C=C(C=C1)NC(=O)C2=CC(=CC=C2)C(C)(C)C#N)NC3=CC4=C(C=C3)N=CN(C4=O)C
Outline: as §1

[15] = compound: CC1=C(C=C(C=C1)NC(=O)C2=CC(=CC=C2)N(C)C)NC(=O)C3=CC=C(C=C3)O
Outline: as §1

[16] = compound: CC1=CC=C(C=C1)SC2=C3C=C(SC3=CN=C2)C(=O)N
Outline: as §1

Measured: log2 fold change

YBX3 (UniProt P16989)
inactive: erlotinib 0.002 | [1] -0.089 | [2] 0.014 | [3] -0.012 | [4] 0.004 | [5] -0.013 | [6] -0.007 | [7] 0.016 | [8] -0.012 | IRAK-1-4 Inhibitor I 0 | ibrutinib -0.044 | [9] -0.005 | ralimetinib -0.001 | [10] -0.035 | [11] 0.005 | [12] -0.004 | [13] -0.046 | [14] 0.024 | [15] 0.007 | [16] -0.021

XPO7 (UniProt Q9UIA9)
inactive: erlotinib 0.024 | [1] 0.017 | [2] 0.012 | [3] 0.001 | [4] 0.011 | [5] -0.015 | [6] -0.021 | [7] -0.016 | [8] 0.034 | IRAK-1-4 Inhibitor I 0.014 | ibrutinib 0.001 | [9] -0.019 | ralimetinib 0 | [10] -0.035 | [11] -0.021 | [12] -0.002 | [13] 0.002 | [14] 0.021 | [15] 0.024 | [16] -0.003

ZC3H11A (UniProt O75152)
inactive: erlotinib 0.021 | [1] -0.048 | [2] -0.027 | [3] 0.004 | [4] -0.048 | [5] 0.029 | [6] -0.02 | [7] -0.011 | [8] -0.003 | IRAK-1-4 Inhibitor I -0.012 | ibrutinib 0.025 | [9] -0.1 | ralimetinib 0.019 | [10] -0.034 | [11] 0.025 | [12] 0.084 | [13] -0.016 | [14] 0.041 | [15] 0.041 | [16] -0.096

XXYLT1 (UniProt Q8NBI6)
inactive: erlotinib -0.001 | [1] 0.047 | [2] -0.022 | [3] 0.118 | [4] 0.019 | [5] -0.032 | [6] -0.039 | [7] 0.006 | [8] 0.021 | IRAK-1-4 Inhibitor I 0.005 | ibrutinib -0.005 | [9] 0.008 | ralimetinib -0.015 | [10] -0.022 | [11] 0.05 | [12] 0.014 | [13] -0.065 | [14] 0.037 | [15] 0.025 | [16] 0.016

ZDHHC18 (UniProt Q9NUE0)
inactive: erlotinib 0.265 | [1] -0.057 | [2] -0.371 | [3] -0.052 | [4] -0.135 | [5] 0.004 | [6] 0.038 | [7] -0.022 | [8] 0.075 | IRAK-1-4 Inhibitor I 0.13 | ibrutinib -0.103 | [9] 0.057 | ralimetinib 0.093 | [10] -0.017 | [11] -0.137 | [12] 0.019 | [13] 0.209 | [14] -0.022 | [15] 0.073 | [16] -0.01

XRCC6 (UniProt P12956)
inactive: erlotinib 0.004 | [1] -0.02 | [2] -0.016 | [3] -0.01 | [4] 0.009 | [5] 0.007 | [6] -0.014 | [7] -0.003 | [8] 0.008 | IRAK-1-4 Inhibitor I -0.006 | ibrutinib -0.032 | [9] -0.011 | ralimetinib -0.006 | [10] -0.029 | [11] -0.007 | [12] 0.001 | [13] 0.041 | [14] 0.007 | [15] 0.002 | [16] -0.006

XRN2 (UniProt Q9H0D6)
inactive: erlotinib 0.003 | [1] -0.059 | [2] 0.064 | [3] -0.004 | [4] -0.052 | [5] -0.053 | [6] 0.052 | [7] -0.031 | [8] -0.032 | IRAK-1-4 Inhibitor I 0.038 | ibrutinib 0.041 | [9] -0.016 | ralimetinib 0.012 | [10] 0.006 | [11] -0.014 | [12] -0.018 | [13] -0.031 | [14] -0.011 | [15] 0.018 | [16] 0.008

ZDHHC5 (UniProt Q9C0B5)
inactive: erlotinib -0.039 | [1] 0.008 | [2] 0.002 | [3] -0.027 | [4] 0.021 | [5] 0.003 | [6] -0.035 | [7] 0.002 | [8] 0.047 | IRAK-1-4 Inhibitor I 0.009 | ibrutinib 0.02 | [9] -0.032 | ralimetinib 0.028 | [10] -0.012 | [11] -0.032 | [12] -0.033 | [13] -0.033 | [14] 0.004 | [15] 0.004 | [16] -0.034

ZC3H7B (UniProt Q9UGR2)
inactive: erlotinib -0.056 | [1] -0.01 | [2] 0.02 | [3] 0.073 | [4] 0.154 | [5] 0.001 | [6] -0.021 | [7] -0.018 | [8] 0.051 | IRAK-1-4 Inhibitor I 0.028 | ibrutinib 0.051 | [9] 0.092 | ralimetinib 0.026 | [10] -0.04 | [11] 0.065 | [12] 0.041 | [13] 0 | [14] -0.044 | [15] 0.076 | [16] -0.104

YPEL5 (UniProt P62699)
inactive: erlotinib 0.007 | [1] 0.09 | [2] -0.049 | [3] 0.002 | [4] -0.019 | [5] -0.048 | [6] 0.072 | [7] -0.048 | [8] 0.047 | IRAK-1-4 Inhibitor I -0.043 | ibrutinib -0.001 | [9] -0.038 | ralimetinib 0.018 | [10] -0.047 | [11] 0.076 | [12] -0.012 | [13] 0.009 | [14] 0.031 | [15] -0.048 | [16] 0.078

YIPF3 (UniProt Q9GZM5)
inactive: erlotinib -0.001 | [1] -0.002 | [2] -0.047 | [3] 0.017 | [4] -0.063 | [5] 0.003 | [6] 0.036 | [7] -0.01 | [8] 0.008 | IRAK-1-4 Inhibitor I 0.023 | ibrutinib -0.005 | [9] -0.029 | ralimetinib 0.008 | [10] -0.024 | [11] -0.019 | [12] 0.033 | [13] -0.023 | [14] -0.033 | [15] 0.041 | [16] 0.001

2 consecutive entries already listed, for reference:
ZC3H7B (UniProt Q9UGR2)
inactive: erlotinib -0.056 | [1] -0.01 | [2] 0.02 | [3] 0.073 | [4] 0.154 | [5] 0.001 | [6] -0.021 | [7] -0.018 | [8] 0.051 | IRAK-1-4 Inhibitor I 0.028 | ibrutinib 0.051 | [9] 0.092 | ralimetinib 0.026 | [10] -0.04 | [11] 0.065 | [12] 0.041 | [13] 0 | [14] -0.044 | [15] 0.076 | [16] -0.104

YPEL5 (UniProt P62699)
inactive: erlotinib 0.007 | [1] 0.09 | [2] -0.049 | [3] 0.002 | [4] -0.019 | [5] -0.048 | [6] 0.072 | [7] -0.048 | [8] 0.047 | IRAK-1-4 Inhibitor I -0.043 | ibrutinib -0.001 | [9] -0.038 | ralimetinib 0.018 | [10] -0.047 | [11] 0.076 | [12] -0.012 | [13] 0.009 | [14] 0.031 | [15] -0.048 | [16] 0.078

More entries follow:

ZFYVE9 (UniProt O95405)
inactive: erlotinib 0.015 | [1] -0.154 | [2] 0.045 | [3] 0.034 | [4] 0.027 | [5] 0.005 | [6] -0.003 | [7] -0.051 | [8] -0.051 | IRAK-1-4 Inhibitor I 0.134 | ibrutinib 0.023 | [9] -0.045 | ralimetinib -0.022 | [10] -0.015 | [11] 0.002 | [12] -0.031 | [13] -0.046 | [14] -0.009 | [15] 0.02 | [16] 0.034

ZC3H8 (UniProt Q8N5P1)
inactive: erlotinib -0.003 | [1] 0.024 | [2] -0.02 | [3] -0.031 | [4] -0.056 | [5] 0.012 | [6] 0.009 | [7] 0.03 | [8] -0.002 | IRAK-1-4 Inhibitor I -0.013 | ibrutinib 0.057 | [9] -0.042 | ralimetinib 0.058 | [10] -0.005 | [11] 0.005 | [12] -0.078 | [13] -0.044 | [14] 0.018 | [15] -0.023 | [16] 0.074

YRDC (UniProt Q86U90)
inactive: erlotinib 0.009 | [1] 0.03 | [2] -0.001 | [3] -0.018 | [4] -0.021 | [5] 0.036 | [6] 0.081 | [7] -0.065 | [8] 0.006 | IRAK-1-4 Inhibitor I -0.02 | ibrutinib 0.01 | [9] -0.002 | ralimetinib 0.025 | [10] -0.012 | [11] 0.027 | [12] -0.006 | [13] -0.015 | [14] 0.021 | [15] 0.007 | [16] 0.008

YIPF4 (UniProt Q9BSR8)
inactive: erlotinib -0.055 | [1] 0.025 | [2] 0.021 | [3] 0.035 | [4] -0.004 | [5] 0.006 | [6] 0.054 | [7] -0.027 | [8] 0.039 | IRAK-1-4 Inhibitor I 0.054 | ibrutinib 0.011 | [9] -0.054 | ralimetinib -0.031 | [10] -0.029 | [11] -0.011 | [12] 0.025 | [13] -0.015 | [14] 0.013 | [15] 0.023 | [16] 0.073

YIF1B (UniProt Q5BJH7)
inactive: erlotinib 0.014 | [1] -0.052 | [2] -0.011 | [3] 0.049 | [4] -0.027 | [5] 0.024 | [6] -0.077 | [7] -0.031 | [8] -0.014 | IRAK-1-4 Inhibitor I -0.042 | ibrutinib 0.026 | [9] -0.055 | ralimetinib 0.012 | [10] -0.026 | [11] -0.006 | [12] 0.022 | [13] 0.055 | [14] 0.036 | [15] 0.073 | [16] 0.011
